Paper doi:10.1101/2020.06.11.146753
Results are given in words; binding and its absence hold for the method and conditions named. Some binding calls cover weakened binding; strength is not graded here. Where a sequence is shown, tags or fusion partners need not be part of it.

Biological target: T1, Bt1762 (SusD) W85A, C-terminal His6 tag (Bacteroides thetaiotaomicron VPI-5482) (UniProt Q8A6W4)
T1 sequence (chain, lipid anchor (lipoprotein)): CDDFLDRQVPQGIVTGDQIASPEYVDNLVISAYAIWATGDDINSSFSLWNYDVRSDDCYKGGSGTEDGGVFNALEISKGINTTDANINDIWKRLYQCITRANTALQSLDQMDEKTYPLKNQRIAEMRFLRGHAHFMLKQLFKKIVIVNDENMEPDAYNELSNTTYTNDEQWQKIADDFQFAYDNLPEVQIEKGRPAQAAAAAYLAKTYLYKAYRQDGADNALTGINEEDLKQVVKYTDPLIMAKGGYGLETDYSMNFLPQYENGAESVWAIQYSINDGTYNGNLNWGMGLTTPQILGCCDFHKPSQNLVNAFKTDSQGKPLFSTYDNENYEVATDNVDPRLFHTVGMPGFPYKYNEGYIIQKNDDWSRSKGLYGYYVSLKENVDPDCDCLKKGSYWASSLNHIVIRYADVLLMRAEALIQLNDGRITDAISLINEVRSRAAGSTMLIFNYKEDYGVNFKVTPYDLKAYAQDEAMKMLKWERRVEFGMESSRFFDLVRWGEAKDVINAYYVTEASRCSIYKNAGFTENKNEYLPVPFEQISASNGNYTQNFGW
Experiment: co-purification by IMAC, SDS-PAGE

- binding: binds
B1: Bt1763 (SusC) (protein, UniProt Q8A6W3 26-1041)
chain: GQNITVKGNVTSKTDGQPIIGASVVETTATTNGTITDFDGNFTLSVPVNSTLKITYIGYKPVTVKAAAIVNVLLEEDTQMVDEVVVTGYTTQRKADLTGAVSVVKVDEIQKQGENNPVKALQGRVPGMNITADGNPSGSATVRIRGIGTLNNNDPLYIIDGVPTKAGMHELNGNDIESIQVLKDAASASIYGSRAANGVIIITTKQGKKGQIKINFDASVSASMYQSKMNVLNTEQYGRAMWQAYVNDGENPNGNALGYAYNWGYNADGNPVLYGMTLSKYLDSKNTMPVADTDWFDEITRTGVIQQYNLSVSNGSEKGSSFFSLGYYKNLGVIKDTDFDRFSARMNSDYKLIDDILTIGQHFTLNRTSEVQAPGGIIETALDIPSAIPVYASDGSWGGPVGGWPDRRNPRAVLEYNKDNRYTYWRMFGDAYVNLTPFKGFNLRSTFGLDYANKQARYFTYPYQEGTQTNNGKSAVEAKQEHWTKWMWNAIATYQLEVGKHRGDVMIGMELNREDDSHFSGYKEDFSILTPDYMWPDAGSGTAQAYGAGEGYSLVSFFGKMNYSYADRYLLSLTLRRDGSSRFGKNHRYATFPSVSLGWRITQENFMKELTWLDDLKLRASWGQTGNQEISNLARYTIYAPNYGTTDSFGGQSYGTAYDITGSNGGGVLPSGFKRNQIGNDNIKWETTTQTNVGIDFSLFKQSLYGSLEYYYKKATDILTEMAGVGVLGEGGSRWINSGAMKNQGFEFNLGYRNKTAFGLTYDLNGNISTYRNEILELPETVAANGKFGGNGVKSVVGHTYGAQVGYIADGIFKSQDEVDNHATQEGAAVGRIRYRDIDHNGVIDERDQNWIYDPTPSFSYGLNIYLEYKNFDLTMFWQGVQGVDIISDVKKKSDFWSASNVGFLNKGTRLLNAWSPTNPNSDIPALTRSDTNNEQRVSTYFVENGSFLKLRNIQLGYTVPAVISKKMRMDRLRFYCSAQNLLTIKSKNFTGEDPENPNFSYPIPVNITFGLNIGF
